{
  "source": "paper PMC12373974",
  "system": "MBP-BnaA10.SEP (Brassica napus)",
  "assay": "EMSA",
  "details": "25°C 30 min binding; 6% native PAGE in 0.5x TBE, 60 V, 4°C; binding buffer not stated; recombinant protein; protein details: MBP (pMAL-C5X); label: 5'-biotin",
  "note": "Construct, isoform or probe ends are uncertain for at least one entry.",
  "data": [
    {"sequence": "TTTCATTAACCTTTGGGTTG (double strand) [GT1-motif probe of pBnaA10/C09.TFL1DTI-100]", "values": [
      {"measurement": "binding result", "value": "binds"}
    ]}
  ]
}
